Results reported in US4405354A, “Elimination of odors from waste material” (priority 1980, dated 1983).

Columns and labels:
[1] = Neutralization of ammonium hydroxide added dropwise to 5 grams of active chemical, ammonia odor checked by smell; settings: 5 grams of the active chemical; no odor of ammonia detected
[2] = Pelleted cat litter used by an adult cat until the odor of ammonia could be detected; settings: by weight in animal litter

Row | SMILES | NH4 OH(grams neutralized) [1] | concentration exerting an effective control of ammonia odor [2]
1 | O=C1O[C@H]([C@@H](O)CO)C(O)=C1O [Ascorbic Acid] | 2.1 grams | 
2 | O=P([O-])([O-])O.[Ca+2] [CaHPO4] | 1.9 grams | 
3 | O=C(O)CC(O)(CC(=O)O)C(=O)O [Citric Acid] | 3.5 grams | 
4 | O=C(O)CN(CCN(CC(=O)O)CC(=O)O)CC(=O)O [Ethylene diaminetetraacetic Acid] | 2.8 grams | 
5 | O=S(=O)(O)O [H2 SO4, sulfuric acid] | 4.0 grams | 
6 | O=P(O)(O)O [H3 PO4, orthophosphoric acid] | 4.5 grams | 
7 | O=CO [HCOOH, formic acid] | 4.5 grams | 
8 | CC(=O)O [HOAc, acetic acid] | 4.2 grams | 
9 | O=P([O-])(O)O.[K+] [KH2 PO4] | 4.4 grams | 
10 | CC(O)C(=O)O (centres unmarked) [Lactic Acid] | 3.0 grams | 
11 | O=P([O-])(O)O.[Na+] [NaH2 PO4] | 3.5 grams | 
12 | CCC(=O)O [Propionic Acid] | 2.7 grams | 
13 | O=S(=O)([O-])O.[Na+] [sodium bisulfate] | 3.75 grams | ≥ 0.5%
